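A panel of P. falciparum strains inside erythrocytes is exposed to compounds for three days, then a DNA-binding dye reports the amount of parasite DNA.
Each compound was titrated across a series from about 0.000037 to 29 µM.
The number is the fitted AC50, the concentration giving a half-maximal change in signal; a lower value means higher potency, whether the curve shows a decrease or an increase.
Calls follow the curve class and fit quality: every row here is inconclusive, covering signal-raising curves and weak, poorly fitted, partial or highest-dose-only inhibition curves.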

Values are in nM.
Every entry below has the call inconclusive.
Only part of the assay is shown, chiefly results filed as inconclusive.
Potencies fitted to partial, single-point or poorly fitting curves are rough.
Some entries filed as inconclusive have a full curve.
The first word of each remark tells which way the curve ran; it can be opposite to the aim of the assay.
An entry listed twice with the same setting is a separate test.

structure,condition,Potency (nM),remark
CC1CCc2c(N3CCC(O)CC3)c(F)cc3c(=O)c(C(=O)O)cn1c23 (stereo not shown),TAB113,14125,"inhibitor, single point"
CC1CCc2c(N3CCC(O)CC3)c(F)cc3c(=O)c(C(=O)O)cn1c23 (stereo not shown),CP262,19011,"inhibitor, single point"
CC1CCc2c(N3CCC(O)CC3)c(F)cc3c(=O)c(C(=O)O)cn1c23 (stereo not shown),CP185,10000,"inhibitor, single point"
CC1CCc2c(N3CCC(O)CC3)c(F)cc3c(=O)c(C(=O)O)cn1c23 (stereo not shown),3D7,17782,"inhibitor, single point"
CC1CCc2c(N3CCC(O)CC3)c(F)cc3c(=O)c(C(=O)O)cn1c23 (stereo not shown),CP269,10690,"inhibitor, single point"
CC1CCc2c(N3CCC(O)CC3)c(F)cc3c(=O)c(C(=O)O)cn1c23 (stereo not shown),N140,11220,"inhibitor, single point"
CC1CCc2c(N3CCC(O)CC3)c(F)cc3c(=O)c(C(=O)O)cn1c23 (stereo not shown),CP266,849.2,"activator, partial curve, poor fit"
O=C1NCN(c2ccccc2)C12CCN(CCCC(c1ccc(F)cc1)c1ccc(F)cc1)CC2,CP215,2393,"inhibitor, full curve"
O=C1NCN(c2ccccc2)C12CCN(CCCC(c1ccc(F)cc1)c1ccc(F)cc1)CC2,CP266,338.1,"inhibitor, full curve, poor fit"
O=C1NCN(c2ccccc2)C12CCN(CCCC(c1ccc(F)cc1)c1ccc(F)cc1)CC2,DIV30,756.9,"inhibitor, full curve"
O=C1NCN(c2ccccc2)C12CCN(CCCC(c1ccc(F)cc1)c1ccc(F)cc1)CC2,CP194,2393,"inhibitor, full curve"
O=C1NCN(c2ccccc2)C12CCN(CCCC(c1ccc(F)cc1)c1ccc(F)cc1)CC2,CP201,1694,"inhibitor, full curve"
O=C1NCN(c2ccccc2)C12CCN(CCCC(c1ccc(F)cc1)c1ccc(F)cc1)CC2,CP315,2686,"inhibitor, full curve"
O=C1NCN(c2ccccc2)C12CCN(CCCC(c1ccc(F)cc1)c1ccc(F)cc1)CC2,CP297,1346,"inhibitor, full curve"
O=C1NCN(c2ccccc2)C12CCN(CCCC(c1ccc(F)cc1)c1ccc(F)cc1)CC2,PC49,10000,"inhibitor, single point"
O=C1NCN(c2ccccc2)C12CCN(CCCC(c1ccc(F)cc1)c1ccc(F)cc1)CC2,CP211,2133,"inhibitor, full curve"
O=C1NCN(c2ccccc2)C12CCN(CCCC(c1ccc(F)cc1)c1ccc(F)cc1)CC2,CP291,2393,"inhibitor, full curve"
O=C1NCN(c2ccccc2)C12CCN(CCCC(c1ccc(F)cc1)c1ccc(F)cc1)CC2,CP203,3793,"inhibitor, partial curve, poor fit"
O=C1NCN(c2ccccc2)C12CCN(CCCC(c1ccc(F)cc1)c1ccc(F)cc1)CC2,CP269,1694,"inhibitor, full curve"
O=C1NCN(c2ccccc2)C12CCN(CCCC(c1ccc(F)cc1)c1ccc(F)cc1)CC2,CP192,1510,"inhibitor, full curve"
O=C1NCN(c2ccccc2)C12CCN(CCCC(c1ccc(F)cc1)c1ccc(F)cc1)CC2,JCK,17782,"inhibitor, single point"
O=C1NCN(c2ccccc2)C12CCN(CCCC(c1ccc(F)cc1)c1ccc(F)cc1)CC2,CP325,3381,"inhibitor, partial curve, poor fit"
O=C1NCN(c2ccccc2)C12CCN(CCCC(c1ccc(F)cc1)c1ccc(F)cc1)CC2,PC26,1510,"inhibitor, full curve"
CN1[C@@H]2CC[C@H]1CC(OC(c1ccccc1)c1ccccc1)C2 (stereo partly shown),CP268,6746,"inhibitor, partial curve, poor fit"
CN1[C@@H]2CC[C@H]1CC(OC(c1ccccc1)c1ccccc1)C2 (stereo partly shown),DIV30,5358,"inhibitor, partial curve"
CN1[C@@H]2CC[C@H]1CC(OC(c1ccccc1)c1ccccc1)C2 (stereo partly shown),ECU,8912,"inhibitor, partial curve"
CN1[C@@H]2CC[C@H]1CC(OC(c1ccccc1)c1ccccc1)C2 (stereo partly shown),ECU,10000,"inhibitor, partial curve"
CN1[C@@H]2CC[C@H]1CC(OC(c1ccccc1)c1ccccc1)C2 (stereo partly shown),CP329,2133,"inhibitor, partial curve"
CN1[C@@H]2CC[C@H]1CC(OC(c1ccccc1)c1ccccc1)C2 (stereo partly shown),N140,8912,"inhibitor, partial curve"
CN1[C@@H]2CC[C@H]1CC(OC(c1ccccc1)c1ccccc1)C2 (stereo partly shown),CP291,5358,"inhibitor, partial curve, poor fit"
CN1[C@@H]2CC[C@H]1CC(OC(c1ccccc1)c1ccccc1)C2 (stereo partly shown),PC15,3548,"inhibitor, partial curve"
CN1[C@@H]2CC[C@H]1CC(OC(c1ccccc1)c1ccccc1)C2 (stereo partly shown),CP265,7080,"inhibitor, partial curve"
CN1[C@@H]2CC[C@H]1CC(OC(c1ccccc1)c1ccccc1)C2 (stereo partly shown),CP269,10690,"inhibitor, single point"
CN1[C@@H]2CC[C@H]1CC(OC(c1ccccc1)c1ccccc1)C2 (stereo partly shown),PAD,11220,"inhibitor, partial curve"
CN1[C@@H]2CC[C@H]1CC(OC(c1ccccc1)c1ccccc1)C2 (stereo partly shown),CP291,3793,"inhibitor, partial curve, poor fit"
CN1[C@@H]2CC[C@H]1CC(OC(c1ccccc1)c1ccccc1)C2 (stereo partly shown),TAB113,10000,"inhibitor, single point"
CN1[C@@H]2CC[C@H]1CC(OC(c1ccccc1)c1ccccc1)C2 (stereo partly shown),DIV30,4776,"inhibitor, partial curve"
CN1[C@@H]2CC[C@H]1CC(OC(c1ccccc1)c1ccccc1)C2 (stereo partly shown),SC27B,11220,"inhibitor, partial curve"
CN1[C@@H]2CC[C@H]1CC(OC(c1ccccc1)c1ccccc1)C2 (stereo partly shown),N140,7943,"inhibitor, partial curve, poor fit"
CN1[C@@H]2CC[C@H]1CC(OC(c1ccccc1)c1ccccc1)C2 (stereo partly shown),TAB113,11220,"inhibitor, partial curve, poor fit"
CN1[C@@H]2CC[C@H]1CC(OC(c1ccccc1)c1ccccc1)C2 (stereo partly shown),CP265,10000,"inhibitor, single point"
CN1[C@@H]2CC[C@H]1CC(OC(c1ccccc1)c1ccccc1)C2 (stereo partly shown),P94_40,5012,"inhibitor, partial curve, poor fit"
CN1[C@@H]2CC[C@H]1CC(OC(c1ccccc1)c1ccccc1)C2 (stereo partly shown),P93_24,7080,"inhibitor, partial curve"
CN1[C@@H]2CC[C@H]1CC(OC(c1ccccc1)c1ccccc1)C2 (stereo partly shown),CP269,8492,"inhibitor, partial curve"
CN1[C@@H]2CC[C@H]1CC(OC(c1ccccc1)c1ccccc1)C2 (stereo partly shown),CP335,1901,"inhibitor, full curve"

For reference, 6 entries once more:

{"structure": "CN1[C@@H]2CC[C@H]1CC(OC(c1ccccc1)c1ccccc1)C2", "stereo": "stereo partly shown", "condition": "ECU", "Potency (nM)": "10000", "remark": "inhibitor, partial curve"}
{"structure": "CN1[C@@H]2CC[C@H]1CC(OC(c1ccccc1)c1ccccc1)C2", "stereo": "stereo partly shown", "condition": "CP291", "Potency (nM)": "3793", "remark": "inhibitor, partial curve, poor fit"}
{"structure": "CC1CCc2c(N3CCC(O)CC3)c(F)cc3c(=O)c(C(=O)O)cn1c23", "stereo": "stereo not shown", "condition": "CP185", "Potency (nM)": "10000", "remark": "inhibitor, single point"}
{"structure": "CC1CCc2c(N3CCC(O)CC3)c(F)cc3c(=O)c(C(=O)O)cn1c23", "stereo": "stereo not shown", "condition": "N140", "Potency (nM)": "11220", "remark": "inhibitor, single point"}
{"structure": "O=C1NCN(c2ccccc2)C12CCN(CCCC(c1ccc(F)cc1)c1ccc(F)cc1)CC2", "condition": "DIV30", "Potency (nM)": "756.9", "remark": "inhibitor, full curve"}
{"structure": "CN1[C@@H]2CC[C@H]1CC(OC(c1ccccc1)c1ccccc1)C2", "stereo": "stereo partly shown", "condition": "CP335", "Potency (nM)": "1901", "remark": "inhibitor, full curve"}

Data taken from PubChem BioAssay AID504749, deposited by NCATS (2011).